# Measurements from PubChem BioAssay AID588590 (National Center for Advancing Translational Sciences (NCATS), 2011).
# Protein sequences, listed by entry. Tags and fused reporters are not part of them. Lines headed by an entry give the natural chain unless they say otherwise; changes in a name come on top.
# UniProt Q9UNA4: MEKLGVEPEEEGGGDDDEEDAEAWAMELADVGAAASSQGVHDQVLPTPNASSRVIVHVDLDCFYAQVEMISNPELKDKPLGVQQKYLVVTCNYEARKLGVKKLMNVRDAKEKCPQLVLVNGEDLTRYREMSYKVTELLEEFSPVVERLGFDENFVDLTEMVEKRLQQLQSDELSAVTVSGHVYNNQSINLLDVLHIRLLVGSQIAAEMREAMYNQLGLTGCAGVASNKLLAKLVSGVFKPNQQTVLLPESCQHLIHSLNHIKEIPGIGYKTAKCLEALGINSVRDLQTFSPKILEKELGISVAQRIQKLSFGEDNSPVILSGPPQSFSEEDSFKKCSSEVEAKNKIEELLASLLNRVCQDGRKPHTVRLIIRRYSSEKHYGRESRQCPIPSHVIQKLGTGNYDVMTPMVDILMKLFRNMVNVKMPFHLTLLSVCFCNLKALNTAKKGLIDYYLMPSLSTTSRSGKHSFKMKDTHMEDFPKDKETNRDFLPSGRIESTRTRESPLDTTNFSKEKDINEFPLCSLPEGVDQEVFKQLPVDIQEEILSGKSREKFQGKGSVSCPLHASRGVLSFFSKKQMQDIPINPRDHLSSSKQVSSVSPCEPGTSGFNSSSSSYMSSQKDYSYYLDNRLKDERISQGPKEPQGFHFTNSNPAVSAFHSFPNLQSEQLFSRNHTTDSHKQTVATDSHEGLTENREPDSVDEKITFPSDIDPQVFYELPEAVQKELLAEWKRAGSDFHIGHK
# Among all 390,000 compounds or so, about 4,000 (1%) were called active. This list was built around the results that the source calls inconclusive (neither active nor inactive); the mix of calls is not that of the screen. The call rests on the fitted dose curve; in most records, active means well fitted inhibition curve with a large enough effect; inconclusive means small, poorly fitted or top-dose-only effect, or another doubt; inactive means no such curve, though single readings can be large or run the other way. Potencies beside an inconclusive call are fits to weak or partial responses and may not hold up.
# Molecular target: DNA polymerase iota (Homo sapiens) (UniProt Q9UNA4)
# Assay: qHTS for Inhibitors of Polymerase Iota
# Conditions: Pol iota fluorescent replication assay, 10 min; series mostly up to 115 µM; activity, negative = inhibition: at the top concentration
# In short: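 Pol iota at 10 nM preincubated 15 min with compounds at room temperature; reaction started with fluorescent substrate, 50 nM final. Fluorescence read kinetically at 0 and 10 min; buffer-only wells as negative control.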
# Potency means the concentration at half of the fitted maximal effect.
SMILES,Potency,"activity, negative = inhibition"
COc1ccc(-c2[nH]c(-c3ccc(F)cc3)nc2SCC(=O)NCc2ccco2)cc1OC,"inconclusive: 4.47 µM [inhibitor, full curve, poor fit]",–
CCCCc1nc(NCCNC(=O)c2ccco2)c(C#N)c2c1CSC(C)(C)C2,"inconclusive: 25.1 µM [inhibitor, single point]",–
CCOc1ccc(N(CC)S(=O)(=O)N2CCCC(C(=O)NCc3ccc(Cl)cc3)C2)cc1 (configuration not stated),–,inactive: 4.52%
CCn1c(SCC(=O)N2CCC(C)CC2)nnc1-c1ccccc1O,"inconclusive: 89.1 µM [inhibitor, single point]",–
Cc1ccc(S(=O)(=O)NCCc2sc3nc(-c4ccccc4)nn3c2C)cc1C,–,inactive: -9.87%
COc1ccc2c(c1)CCC/C2=N/OC(=O)c1ccccc1OC,"inconclusive: 39.8 µM [inhibitor, partial curve, poor fit]",–
Cc1cc(C)c(NC(=O)NC(=O)c2ccc(F)cc2)c(C)n1,"inconclusive: 12.6 µM [inhibitor, partial curve, poor fit]",–
COc1cc(CN2CCCC(C(=O)c3ccccc3SC)C2)cc(OC)c1 (configuration not stated),–,inactive: -27.3%
O=C1NN(c2ccccc2)C(=O)/C1=C/c1ccc(-c2cccc(C(=O)O)c2)o1,active: 8.91 µM,–
CSc1cccc(NC(=O)Cn2nc(C)c3sc4ccccc4c3c2=O)c1,–,inactive: 8.36%
COc1ccc(S(=O)(=O)NCC2CCCN(C(=O)c3cccnc3C)C2)cc1 (configuration not stated),"inconclusive: 35.5 µM [inhibitor, partial curve, poor fit]",–
COc1ccc(-n2c(C)nc3cc(C(=O)NC4CCCC4)ccc32)cc1,"inconclusive: 100 µM [inhibitor, single point]",–
CC1=C(SCCC#N)S/C(=C2\SC(C)=C(SCCC#N)S2)S1,"inconclusive: 3.55 µM [inhibitor, full curve, poor fit]",–
O=c1c2c([nH]n1-c1ccccc1)CCSC2,"inconclusive: 20 µM [inhibitor, partial curve, poor fit]",–
Cc1ccc(N2CCN(S(=O)(=O)c3ccc4oc(=O)c5ncn(C)c5c4c3)CC2)c(C)c1,–,inactive: 15%
CN(C)c1ccc(C2=Cc3ccccc3C2)cc1,"inconclusive: 50.1 µM [inhibitor, single point]",–
O=C(NCCc1ccccc1)c1c(O)c2cccc3c2n(c1=O)CC3,–,inactive: -1.48%
COc1cccc(CNc2ncc(-c3ccc(Br)cc3)n2C)c1,"inconclusive: 28.2 µM [inhibitor, partial curve, poor fit]",–
COc1cc(NC(=O)c2cccs2)c(OC)cc1NC(=O)CCC(=O)Nc1cccc2ncccc12,"inconclusive: 89.1 µM [inhibitor, single point]",–
COc1ccc(C(=O)C2CCN(C(=O)Nc3ccc(C)cc3)CC2)cc1,"inconclusive: 89.1 µM [inhibitor, single point]",–
COc1cccc(N2CCN(c3c(C#N)c(C(F)(F)F)nn3C)CC2)c1,–,inactive: 9.75%

SMILES,Potency,"activity, negative = inhibition"
O=C(O)CC(NS(=O)(=O)c1ccc(Br)s1)c1ccccc1 (configuration not stated),–,inactive: 35.7%
COc1ccccc1-c1cc(C(F)(F)F)nc(NCc2ccco2)n1,"inconclusive: 20 µM [inhibitor, partial curve, poor fit]",–
Cc1ccc(OCCSc2ncnc3sc(C)c(C)c23)cc1C,"inconclusive: 89.1 µM [inhibitor, single point]",–
CCOC(=O)c1ccccc1Nc1cc(C)nc2nc(-c3ccco3)nn12,"inconclusive: 89.1 µM [inhibitor, single point]",–
CCOC(=O)Nc1c2ccccc2nc2ccccc12,"inconclusive: 15.8 µM [inhibitor, full curve, poor fit]",–
O=C(CCCN1C(=O)/C(=C/c2ccccc2)SC1=S)Nc1ccc(C(=O)O)c(O)c1,–,inactive: 3.9%
COc1ccccc1OCCn1c(C(C)Oc2ccccc2)nc2ccccc21 (configuration not stated),–,inactive: -8.76%
COC(=O)c1cn(NC(=O)c2cnccn2)c(=O)c2ccccc12,"inconclusive: 5.62 µM [inhibitor, partial curve]",–
Cc1ccc(S(=O)(=O)NC(=O)c2ccc(-c3ccc(C)c4ccccc34)o2)cc1,"inconclusive: 17.8 µM [inhibitor, full curve, poor fit]",–
Cc1ccccc1OCCC(=O)OCC(=O)N1c2ccccc2NC(=O)C1(C)C,"inconclusive: 79.4 µM [inhibitor, partial curve]",–
COC(=O)Nc1ccc(S(=O)(=O)N(CCO)CC(F)(F)C(F)F)cc1,"inconclusive: 112 µM [inhibitor, partial curve, poor fit]",–
COc1ccc(OC)c(NC(=O)c2nnn(CC(=O)Nc3ccc4c(c3)OCO4)c2N)c1,–,inactive: 63.7%
Cc1sc2nc(SCC(=O)N3CCOCC3)[nH]c(=O)c2c1-c1ccccc1,–,inactive: -1.46%
C#CCOCCOCCOCCNc1nc(N2CCN(C(=O)[C@H](CCCN=C(N)N)n3cc(C(N)[C@@H](C)CC)nn3)CC2)nc(N2CCN(C(=O)[C@H](CCCCN)n3cc([C@@H](N)[C@H](C)CC)nn3)CC2)n1 (some centres not stated),"inconclusive: 39.8 µM [inhibitor, single point]",–
O=C(COC(=O)c1cc(=O)[nH]c2ccccc12)Nc1nccs1,"inconclusive: 56.2 µM [inhibitor, partial curve, poor fit]",–
NC(=O)C1CCN(c2nc(-c3ccc(F)cc3)cs2)CC1,"inconclusive: 11.2 µM [inhibitor, full curve, poor fit]",–
O=C(O)c1ccccc1-c1ccccc1C(=O)Nc1ccc(-c2nc3cc(Cl)ccc3o2)cc1,"inconclusive: 12.6 µM [inhibitor, partial curve, poor fit]",–
COc1ccc2[nH]c3c(=O)n(CCCCC(=O)NCCN4CCCC4)c(=S)[nH]c3c2c1,"inconclusive: 44.7 µM [inhibitor, partial curve]",–
CCn1c(SCC(=O)c2ccc(O)c(O)c2)nnc1-c1ccc(C)cc1,–,inactive: -51.3%
Cc1ccc(CNC(=O)c2oc3ccc(S(=O)(=O)N4CCC(C)CC4)cc3c2C)cc1,–,inactive: 21%
CCCCC(=O)OCC(=O)C1(O)Cc2c(O)c3c(c(O)c2C(OC2CC(NC(=O)C(F)(F)F)C(O)C(C)O2)C1)C(=O)c1c(OC)cccc1C3=O (configuration not stated),"inconclusive: 2.51 µM [inhibitor, full curve, poor fit]",–

# Entries of single compounds as entered above. Order of values: Potency	activity, negative = inhibition
# COc1ccc(OC)c(NC(=O)c2nnn(CC(=O)Nc3ccc4c(c3)OCO4)c2N)c1 as listed: –	inactive: 63.7%
# CCOC(=O)c1ccccc1Nc1cc(C)nc2nc(-c3ccco3)nn12 as listed: inconclusive: 89.1 µM [inhibitor, single point]	–
